Data taken from article doi:10.1101/2023.03.29.534715.
Positions count from the first letter of the chain named. Like-named read-outs stand apart in the source and are kept apart here. No constants are given. Whether binding was seen depends on the method and setting. Binding seen in cells or lysates may run through a third protein. Some results given as binding are weak or reduced against the parent protein; the word gives no strength. Each block holds one molecule with its values, some of them ahead of it.

Protein sequences, listed by entry. Tags and fused reporters are not part of them. Residues count along the entry.
UniProt P08575, residues 26-1306: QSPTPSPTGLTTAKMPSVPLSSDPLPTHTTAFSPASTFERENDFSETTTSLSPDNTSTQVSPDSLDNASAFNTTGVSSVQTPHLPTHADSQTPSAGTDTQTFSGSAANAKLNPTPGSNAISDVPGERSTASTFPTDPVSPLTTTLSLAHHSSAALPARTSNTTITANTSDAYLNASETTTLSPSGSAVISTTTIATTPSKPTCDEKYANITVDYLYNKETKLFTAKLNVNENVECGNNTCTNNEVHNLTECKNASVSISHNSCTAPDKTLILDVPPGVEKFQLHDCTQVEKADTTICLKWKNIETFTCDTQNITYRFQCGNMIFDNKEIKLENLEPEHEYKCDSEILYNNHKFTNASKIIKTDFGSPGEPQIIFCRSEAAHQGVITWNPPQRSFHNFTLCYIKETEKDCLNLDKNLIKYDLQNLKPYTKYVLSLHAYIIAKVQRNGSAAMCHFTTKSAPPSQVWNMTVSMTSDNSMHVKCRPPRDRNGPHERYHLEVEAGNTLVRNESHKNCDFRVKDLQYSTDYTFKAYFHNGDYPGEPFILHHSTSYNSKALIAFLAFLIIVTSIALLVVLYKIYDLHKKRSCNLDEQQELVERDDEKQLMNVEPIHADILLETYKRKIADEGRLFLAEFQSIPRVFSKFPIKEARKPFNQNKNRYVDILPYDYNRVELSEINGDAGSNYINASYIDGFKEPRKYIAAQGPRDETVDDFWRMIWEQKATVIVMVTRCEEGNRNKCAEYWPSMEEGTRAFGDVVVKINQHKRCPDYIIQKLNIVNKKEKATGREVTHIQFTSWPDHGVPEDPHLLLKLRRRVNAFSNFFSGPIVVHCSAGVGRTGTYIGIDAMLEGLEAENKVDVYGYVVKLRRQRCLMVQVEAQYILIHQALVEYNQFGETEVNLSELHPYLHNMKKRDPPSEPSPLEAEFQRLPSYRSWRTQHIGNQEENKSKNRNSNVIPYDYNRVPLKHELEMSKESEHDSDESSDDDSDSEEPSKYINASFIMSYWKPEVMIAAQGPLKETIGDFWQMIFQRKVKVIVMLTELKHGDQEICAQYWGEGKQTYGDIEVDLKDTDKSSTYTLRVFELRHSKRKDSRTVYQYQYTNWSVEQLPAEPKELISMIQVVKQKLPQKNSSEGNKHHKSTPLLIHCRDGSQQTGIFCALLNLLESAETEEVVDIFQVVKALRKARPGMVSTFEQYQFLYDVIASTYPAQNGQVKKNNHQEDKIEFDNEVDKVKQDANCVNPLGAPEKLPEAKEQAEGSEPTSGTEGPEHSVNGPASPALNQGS
UniProt P08887, residues 20-468: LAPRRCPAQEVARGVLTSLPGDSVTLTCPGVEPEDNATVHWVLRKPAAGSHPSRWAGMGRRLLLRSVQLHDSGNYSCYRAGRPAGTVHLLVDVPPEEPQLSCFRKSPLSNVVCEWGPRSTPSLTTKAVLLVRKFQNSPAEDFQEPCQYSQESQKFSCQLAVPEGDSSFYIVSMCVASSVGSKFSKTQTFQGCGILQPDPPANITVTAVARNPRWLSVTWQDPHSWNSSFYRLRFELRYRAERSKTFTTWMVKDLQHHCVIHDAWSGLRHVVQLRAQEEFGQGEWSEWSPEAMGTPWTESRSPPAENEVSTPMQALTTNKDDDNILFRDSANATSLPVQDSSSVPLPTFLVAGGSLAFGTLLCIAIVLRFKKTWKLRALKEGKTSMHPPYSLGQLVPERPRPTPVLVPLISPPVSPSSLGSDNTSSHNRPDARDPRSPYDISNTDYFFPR

Tests used:
Assay in all cases: co-IP
ALFA-CD53(NG) (human) [1] = target: T1, ALFA-CD53(NG) (human) (UniProt P19397)
T1 sequence: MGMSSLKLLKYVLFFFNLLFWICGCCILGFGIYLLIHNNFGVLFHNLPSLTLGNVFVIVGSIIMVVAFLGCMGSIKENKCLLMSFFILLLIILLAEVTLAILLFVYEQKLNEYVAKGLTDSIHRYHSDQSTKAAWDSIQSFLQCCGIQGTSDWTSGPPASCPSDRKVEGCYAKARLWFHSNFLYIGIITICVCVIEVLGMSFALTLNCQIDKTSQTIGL

ALFA-CD53 (WT) (human) [2] = target: T2, ALFA-CD53 (WT) (human) (UniProt P19397)
T2 sequence (chain, N-glycosylation at N129 and N148 (broad repertoire of glycoforms)): T1 sequence with Q129N, Q148N

ALFA-CD37 N170Q (human) [3] = target: T3, ALFA-CD37 N170Q (human) (UniProt P11049)
T3 sequence: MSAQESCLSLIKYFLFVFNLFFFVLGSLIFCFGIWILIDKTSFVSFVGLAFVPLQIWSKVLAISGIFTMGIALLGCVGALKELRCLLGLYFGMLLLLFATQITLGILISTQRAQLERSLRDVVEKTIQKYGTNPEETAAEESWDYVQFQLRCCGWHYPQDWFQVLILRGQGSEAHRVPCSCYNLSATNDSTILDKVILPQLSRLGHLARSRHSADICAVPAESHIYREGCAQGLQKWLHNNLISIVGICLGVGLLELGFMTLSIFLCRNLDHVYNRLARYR

ALFA-CD37 (WT) (human) [4] = target: T4, ALFA-CD37 (WT) (human) (UniProt P11049)
T4 sequence (chain, N-glycosylation at N170, N183 and N188 (broad repertoire of glycoforms)): T3 sequence with Q170N

ALFA-CD37 N183Q (human) [5] = target: T5, ALFA-CD37 N183Q (human) (UniProt P11049)
T5 sequence: T3 sequence with Q170N, N183Q

ALFA-CD37 N188Q (human) [6] = target: T6, ALFA-CD37 N188Q (human) (UniProt P11049)
T6 sequence: T3 sequence with Q170N, N188Q

ALFA-CD53(NG) (human) [7] = target: T1, ALFA-CD53(NG) (human); remark: listed apart in the source
ALFA-CD37 N170Q (human) [8] = target: T3, ALFA-CD37 N170Q (human); remark: listed apart in the source
ALFA-CD37 (WT) (human) [9] = target: T4, ALFA-CD37 (WT) (human); remark: listed apart in the source
ALFA-CD53 (WT) (human) [10] = target: T2, ALFA-CD53 (WT) (human); remark: listed apart in the source
ALFA-CD37 N183Q (human) [11] = target: T5, ALFA-CD37 N183Q (human); remark: listed apart in the source
ALFA-CD37 N188Q (human) [12] = target: T6, ALFA-CD37 N188Q (human); remark: listed apart in the source

- binding (ALFA-CD53(NG) (human) [1]): binds
- binding (ALFA-CD53 (WT) (human) [2]): binds
Molecule: CD45 (endogenous) (from UniProt P08575 26-1306)

- binding (ALFA-CD37 N170Q (human) [3]): binds
- binding (ALFA-CD37 (WT) (human) [4]): binds
- binding (ALFA-CD37 N183Q (human) [5]): binds
- binding (ALFA-CD37 N188Q (human) [6]): binds
Molecule: IL-6Rα-GFP (from UniProt P08887 20-468) (receptor)

- binding (ALFA-CD53(NG) (human) [7]): binds
- binding (ALFA-CD37 N170Q (human) [8]): binds
- binding (ALFA-CD37 (WT) (human) [9]): binds
- binding (ALFA-CD53 (WT) (human) [10]): binds
- binding (ALFA-CD37 N183Q (human) [11]): binds
- binding (ALFA-CD37 N188Q (human) [12]): binds
B1: CD20 (endogenous) (protein, UniProt P11836 1-297)
chain: MTTPRNSVNGTFPAEPMKGPIAMQSGPKPLFRRMSSLVGPTQSFFMRESKTLGAVQIMNGLFHIALGGLLMIPAGIYAPICVTVWYPLWGGIMYIISGSLLAATEKNSRKCLVKGKMIMNSLSLFAAISGMILSIMDILNIKISHFLKMESLNFIRAHTPYINIYNCEPANPSEKNSPSTQYCYSIQSLFLGILSVMLIFAFFQELVIAGIVENEWKRTCSRPKSNIVLLSAEEKKEQTIEIKEEVVGLTETSSQPKNEEDIEIIPIQEEEEEETETNFPEPPQDQESSPIENDSSP
